Assay results as given in ChEMBL document CHEMBL1157379, “Transcriptional response of Candida parapsilosis following exposure to farnesol” (2007).
Further values from the same series stand in other lists.

Assays:
Type in all cases: functional
Candida parapsilosis [1] = test: Increase in CGD gene ortholog accession number orf19.5015 expression in Candida parapsilosis CLIB214 at 50 uM after 2 hrs by microarray based transcriptional profiling relative to control
Candida parapsilosis [2] = test: Increase in RPN1 gene expression in Candida parapsilosis CLIB214 at 50 uM after 2 hrs by microarray based transcriptional profiling relative to control
Candida parapsilosis [3] = test: Increase in PUT1 gene expression in Candida parapsilosis CLIB214 at 50 uM after 2 hrs by microarray based transcriptional profiling relative to control
Candida parapsilosis [4] = test: Increase in CGD gene ortholog accession number orf19.7297 expression in Candida parapsilosis CLIB214 at 50 uM after 2 hrs by microarray based transcriptional profiling relative to control
Candida parapsilosis [5] = test: Decrease in CAT8 gene expression in Candida parapsilosis CLIB214 at 50 uM after 2 hrs by microarray based transcriptional profiling relative to control
Candida parapsilosis [6] = test: Decrease in CGD gene ortholog accession number orf19.479 expression in Candida parapsilosis CLIB214 at 50 uM after 2 hrs by microarray based transcriptional profiling relative to control
Candida parapsilosis [7] = test: Decrease in CGD gene ortholog accession number orf19.1177 expression in Candida parapsilosis CLIB214 at 50 uM after 2 hrs by microarray based transcriptional profiling relative to control
Candida parapsilosis [8] = test: Decrease in CGD gene ortholog accession number orf19.136 expression in Candida parapsilosis CLIB214 at 50 uM after 2 hrs by microarray based transcriptional profiling relative to control
Candida parapsilosis [9] = test: Increase in CGD gene ortholog accession number orf19.1755 expression in Candida parapsilosis CLIB214 at 50 uM after 2 hrs by microarray based transcriptional profiling relative to control
Candida parapsilosis [10] = test: Decrease in CGD gene ortholog accession number orf19.2149 expression in Candida parapsilosis CLIB214 at 50 uM after 2 hrs by microarray based transcriptional profiling relative to control
Candida parapsilosis [11] = test: Increase in CGD gene ortholog accession number orf19.5710 expression in Candida parapsilosis CLIB214 at 50 uM after 2 hrs by microarray based transcriptional profiling relative to control
Candida parapsilosis [12] = test: Increase in CGD gene ortholog accession number orf19.4633 expression in Candida parapsilosis CLIB214 at 50 uM after 2 hrs by microarray based transcriptional profiling relative to control
Candida parapsilosis [13] = test: Increase in CGD gene ortholog accession number orf19.2575 expression in Candida parapsilosis CLIB214 at 50 uM after 2 hrs by microarray based transcriptional profiling relative to control
Candida parapsilosis [14] = test: Increase in CGD gene ortholog accession number orf19.4044 expression in Candida parapsilosis CLIB214 at 50 uM after 2 hrs by microarray based transcriptional profiling relative to control
Candida parapsilosis [15] = test: Reduction in NPL4 gene expression in Candida parapsilosis CLIB214 by RT-PCR
Candida parapsilosis [16] = test: Increase in CGD gene ortholog accession number orf19.5364 expression in Candida parapsilosis CLIB214 at 50 uM after 2 hrs by microarray based transcriptional profiling relative to control
Candida parapsilosis [17] = test: Increase in CGD gene ortholog accession number orf19.1536 expression in Candida parapsilosis CLIB214 at 50 uM after 2 hrs by microarray based transcriptional profiling relative to control
Candida parapsilosis [18] = test: Increase in CGD gene ortholog accession number orf19.6810 expression in Candida parapsilosis CLIB214 at 50 uM after 2 hrs by microarray based transcriptional profiling relative to control
Candida parapsilosis [19] = test: Increase in ALD5 gene expression in Candida parapsilosis CLIB214 at 50 uM after 2 hrs by microarray based transcriptional profiling relative to control
Candida parapsilosis [20] = test: Increase in RPS7A gene expression in Candida parapsilosis CLIB214 at 50 uM after 2 hrs by microarray based transcriptional profiling relative to control
Candida parapsilosis [21] = test: Increase in GRP2 gene expression in Candida parapsilosis CLIB214 at 50 uM after 2 hrs by microarray based transcriptional profiling relative to control
Candida parapsilosis [22] = test: Increase in CGD gene ortholog accession number orf19.2070 expression in Candida parapsilosis CLIB214 at 50 uM after 2 hrs by microarray based transcriptional profiling relative to control
Candida parapsilosis [23] = test: Increase in CGD gene ortholog accession number orf19.4980 expression in Candida parapsilosis CLIB214 at 50 uM after 2 hrs by microarray based transcriptional profiling relative to control
Candida parapsilosis [24] = test: Decrease in CGD gene ortholog accession number orf19.6283 expression in Candida parapsilosis CLIB214 at 50 uM after 2 hrs by microarray based transcriptional profiling relative to control
Candida parapsilosis [25] = test: Decrease in CGD gene ortholog accession number orf19.2770 expression in Candida parapsilosis CLIB214 at 50 uM after 2 hrs by microarray based transcriptional profiling relative to control
Candida parapsilosis [26] = test: Increase in CGD gene ortholog accession number orf19.1421 expression in Candida parapsilosis CLIB214 at 50 uM after 2 hrs by microarray based transcriptional profiling relative to control
Candida parapsilosis [27] = test: Increase in CGD gene ortholog accession number orf19.4488 expression in Candida parapsilosis CLIB214 at 50 uM after 2 hrs by microarray based transcriptional profiling relative to control
Candida parapsilosis [28] = test: Increase in CGD gene ortholog accession number orf19.6417 expression in Candida parapsilosis CLIB214 at 50 uM after 2 hrs by microarray based transcriptional profiling relative to control
Candida parapsilosis [29] = test: Decrease in ARF3 gene expression in Candida parapsilosis CLIB214 at 50 uM after 2 hrs by microarray based transcriptional profiling relative to control
Candida parapsilosis [30] = test: Decrease in CGD gene ortholog accession number orf19.2724 expression in Candida parapsilosis CLIB214 at 50 uM after 2 hrs by microarray based transcriptional profiling relative to control
Candida parapsilosis [31] = test: Decrease in POL30 gene expression in Candida parapsilosis CLIB214 at 50 uM after 2 hrs by microarray based transcriptional profiling relative to control
Candida parapsilosis [32] = test: Decrease in CGD gene ortholog accession number orf19.3655 expression in Candida parapsilosis CLIB214 at 50 uM after 2 hrs by microarray based transcriptional profiling relative to control
Candida parapsilosis [33] = test: Decrease in ZCF12 gene expression in Candida parapsilosis CLIB214 at 50 uM after 2 hrs by microarray based transcriptional profiling relative to control
Candida parapsilosis [34] = test: Decrease in CGD gene ortholog accession number orf19.4700 expression in Candida parapsilosis CLIB214 at 50 uM after 2 hrs by microarray based transcriptional profiling relative to control
Candida parapsilosis [35] = test: Decrease in CGD gene ortholog accession number orf19.6637 expression in Candida parapsilosis CLIB214 at 50 uM after 2 hrs by microarray based transcriptional profiling relative to control
Candida parapsilosis [36] = test: Decrease in CGD gene ortholog accession number orf19.3835 expression in Candida parapsilosis CLIB214 at 50 uM after 2 hrs by microarray based transcriptional profiling relative to control

For `CC(C)=CCC/C(C)=C/CC/C(C)=C/CO` [FARNESOL], the “fold change (FC)” value (Candida parapsilosis [1]) was 2.21, the “fold change (FC)” value (Candida parapsilosis [2]) was 2.21 and the “fold change (FC)” value (Candida parapsilosis [3]) was 2.16. For the same compound, the “fold change (FC)” value (Candida parapsilosis [4]) was 2.08, the “fold change (FC)” value (Candida parapsilosis [5]) was 2.09 and the “fold change (FC)” value (Candida parapsilosis [6]) was 1.94. The “fold change (FC)” value (Candida parapsilosis [7]) was 1.97, the “fold change (FC)” value (Candida parapsilosis [8]) was 1.99 and the “fold change (FC)” value (Candida parapsilosis [9]) was 1.76. The “fold change (FC)” value (Candida parapsilosis [10]) was 2.06, the “fold change (FC)” value (Candida parapsilosis [11]) was 1.74 and the “fold change (FC)” value (Candida parapsilosis [12]) was 1.57. For the same compound, the “fold change (FC)” value (Candida parapsilosis [13]) was 1.56, the “fold change (FC)” value (Candida parapsilosis [14]) was 1.56 and the “fold change (FC)” value (Candida parapsilosis [15]) was 1.53. For the same compound, the “fold change (FC)” value (Candida parapsilosis [16]) was 1.52, the “fold change (FC)” value (Candida parapsilosis [17]) was 1.91 and the “fold change (FC)” value (Candida parapsilosis [18]) was 1.83. For the same compound, the “fold change (FC)” value (Candida parapsilosis [19]) was 1.83, the “fold change (FC)” value (Candida parapsilosis [20]) was 2.95 and the “fold change (FC)” value (Candida parapsilosis [21]) was 15.54. For the same compound, the “fold change (FC)” value (Candida parapsilosis [22]) was 1.77, the “fold change (FC)” value (Candida parapsilosis [23]) was 4.61 and the “fold change (FC)” value (Candida parapsilosis [24]) was 1.89. The “fold change (FC)” value (Candida parapsilosis [25]) was 1.92, the “fold change (FC)” value (Candida parapsilosis [26]) was 1.7 and the “fold change (FC)” value (Candida parapsilosis [27]) was 1.7. The “fold change (FC)” value (Candida parapsilosis [28]) was 1.64, the “fold change (FC)” value (Candida parapsilosis [29]) was 1.51 and the “fold change (FC)” value (Candida parapsilosis [30]) was 1.52. For the same compound, the “fold change (FC)” value (Candida parapsilosis [31]) was 1.69, the “fold change (FC)” value (Candida parapsilosis [32]) was 1.7 and the “fold change (FC)” value (Candida parapsilosis [33]) was 1.7. For the same compound, the “fold change (FC)” value (Candida parapsilosis [34]) was 1.83, the “fold change (FC)” value (Candida parapsilosis [35]) was 1.77 and the “fold change (FC)” value (Candida parapsilosis [36]) was 1.82.
